Here are results for two substances from paper PMC4924668.

Amino acid sequences for entries named in this document (tags omitted).
UniProt P49841: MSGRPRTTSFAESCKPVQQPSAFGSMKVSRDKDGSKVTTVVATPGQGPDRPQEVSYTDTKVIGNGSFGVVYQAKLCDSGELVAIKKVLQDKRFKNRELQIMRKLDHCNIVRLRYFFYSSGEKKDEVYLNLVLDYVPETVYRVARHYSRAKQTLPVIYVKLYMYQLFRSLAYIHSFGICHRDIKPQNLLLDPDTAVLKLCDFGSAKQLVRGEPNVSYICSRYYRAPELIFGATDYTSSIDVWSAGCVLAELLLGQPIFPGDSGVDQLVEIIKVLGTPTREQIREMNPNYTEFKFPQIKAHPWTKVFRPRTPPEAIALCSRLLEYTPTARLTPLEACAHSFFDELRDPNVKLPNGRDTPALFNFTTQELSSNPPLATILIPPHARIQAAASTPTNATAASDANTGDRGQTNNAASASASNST

The target in this experiment is T1, Flag-tagged human IL-17 receptor A (Flag-IL-17RA) (human) (UniProt Q96F46).
T1 sequence: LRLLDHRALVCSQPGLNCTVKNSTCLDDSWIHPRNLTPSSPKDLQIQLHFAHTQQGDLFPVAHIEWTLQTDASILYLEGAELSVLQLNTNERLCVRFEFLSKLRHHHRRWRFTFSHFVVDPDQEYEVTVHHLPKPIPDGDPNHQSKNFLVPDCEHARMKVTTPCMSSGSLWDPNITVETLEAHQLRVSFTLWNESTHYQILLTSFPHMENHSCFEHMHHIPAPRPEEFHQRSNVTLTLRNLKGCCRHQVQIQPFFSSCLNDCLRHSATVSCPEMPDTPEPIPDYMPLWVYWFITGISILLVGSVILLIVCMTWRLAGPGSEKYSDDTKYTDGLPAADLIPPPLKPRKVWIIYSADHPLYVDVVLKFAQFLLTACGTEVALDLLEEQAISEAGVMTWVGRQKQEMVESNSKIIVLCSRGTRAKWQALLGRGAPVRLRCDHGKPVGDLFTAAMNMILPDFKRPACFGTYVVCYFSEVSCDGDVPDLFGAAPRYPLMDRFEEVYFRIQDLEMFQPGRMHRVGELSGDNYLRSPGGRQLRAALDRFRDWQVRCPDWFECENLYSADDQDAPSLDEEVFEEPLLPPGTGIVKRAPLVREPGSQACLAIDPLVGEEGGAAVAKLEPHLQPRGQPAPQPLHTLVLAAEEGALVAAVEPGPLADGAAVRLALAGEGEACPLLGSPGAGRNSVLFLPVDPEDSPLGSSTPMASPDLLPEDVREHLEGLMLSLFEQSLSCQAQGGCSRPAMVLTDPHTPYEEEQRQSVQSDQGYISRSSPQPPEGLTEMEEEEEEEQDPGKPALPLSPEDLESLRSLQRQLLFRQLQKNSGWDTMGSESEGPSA
In words: co-IP; 293 cells transfected or co-transfected, RIPA lysates; ANTI-FLAG M2 Affinity Gel or primary antibody plus protein A sepharose overnight at 4°C, washed 3 times with PBS; IB.

No constants are given. Whether binding was seen depends on the method and setting. Binding seen in cells or lysates may run through a third protein. Some entries that bind do so weakly or less than the wild type. Sequences can lack the tags named with a protein.

Consider “GSK3β found in the anti-Flag precipitate of 293 cells transfected with Flag-IL-17RA (from UniProt P49841 1-420) (enzyme)”, for which the binding entry is “binds”.

As for “HA-tagged GSK3β (HA-GSK3β), wild type (from UniProt P49841 1-420) (enzyme)”, the binding result is recorded as “binds”.
